By UniProt entry, the sequences of proteins in these tests, tags left out. Where a name states a change or a piece, a line headed by the entry shows the natural chain unless it says otherwise.
UniProt P46734: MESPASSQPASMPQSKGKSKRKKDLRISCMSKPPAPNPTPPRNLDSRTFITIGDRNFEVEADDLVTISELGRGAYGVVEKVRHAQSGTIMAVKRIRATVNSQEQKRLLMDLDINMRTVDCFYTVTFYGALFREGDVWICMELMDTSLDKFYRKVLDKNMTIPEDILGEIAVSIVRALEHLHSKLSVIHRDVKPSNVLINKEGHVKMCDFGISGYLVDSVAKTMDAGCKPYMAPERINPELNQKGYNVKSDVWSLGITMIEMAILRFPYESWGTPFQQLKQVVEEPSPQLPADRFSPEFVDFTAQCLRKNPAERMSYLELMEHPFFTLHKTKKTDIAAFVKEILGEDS

In paper PMC12660564:

Biological target: MYC-MKK3-EE (constitutively active, phospho-mimetic mutant) (UniProt P46734)
Assay: co-IP; HEK293T cells co-transfected with FLAG- and MYC-tagged constructs; lysates (50 mM Tris-HCl pH 7.4, 150 mM NaCl, 1 mM EDTA, 1% NP-40) immunoprecipitated with anti-FLAG beads or anti-MYC antibody/beads overnight at 4 °C, Western blot

binding: binds
B1: FLAG-USP13 (ubiquitin-specific protease 13, wild type) (enzyme, UniProt Q92995 1-863)
chain: MQRRGALFGMPGGSGGRKMAAGDIGELLVPHMPTIRVPRSGDRVYKNECAFSYDSPNSEGGLYVCMNTFLAFGREHVERHFRKTGQSVYMHLKRHVREKVRGASGGALPKRRNSKIFLDLDTDDDLNSDDYEYEDEAKLVIFPDHYEIALPNIEELPALVTIACDAVLSSKSPYRKQDPDTWENELPVSKYANNLTQLDNGVRIPPSGWKCARCDLRENLWLNLTDGSVLCGKWFFDSSGGNGHALEHYRDMGYPLAVKLGTITPDGADVYSFQEEEPVLDPHLAKHLAHFGIDMLHMHGTENGLQDNDIKLRVSEWEVIQESGTKLKPMYGPGYTGLKNLGNSCYLSSVMQAIFSIPEFQRAYVGNLPRIFDYSPLDPTQDFNTQMTKLGHGLLSGQYSKPPVKSELIEQVMKEEHKPQQNGISPRMFKAFVSKSHPEFSSNRQQDAQEFFLHLVNLVERNRIGSENPSDVFRFLVEERIQCCQTRKVRYTERVDYLMQLPVAMEAATNKDELIAYELTRREAEANRRPLPELVRAKIPFSACLQAFSEPENVDDFWSSALQAKSAGVKTSRFASFPEYLVVQIKKFTFGLDWVPKKFDVSIDMPDLLDINHLRARGLQPGEEELPDISPPIVIPDDSKDRLMNQLIDPSDIDESSVMQLAEMGFPLEACRKAVYFTGNMGAEVAFNWIIVHMEEPDFAEPLTMPGYGGAASAGASVFGASGLDNQPPEEIVAIITSMGFQRNQAIQALRATNNNLERALDWIFSHPEFEEDSDFVIEMENNANANIISEAKPEGPRVKDGSGTYELFAFISHMGTSTMSGHYICHIKKEGRWVIYNDHKVCASERPPKDLGYMYFYRRIPS

These are yes or no findings as the source states them, for the method shown. Binding seen in cells or lysates may run through a third protein. Binding can be weak; no strength is given. Sequences can lack the tags named with a protein.
